Activity change, negative = inhibition data for two compounds are collected here from PubChem BioAssay AID504932 (Broad Institute, 2011).

The other results are listed elsewhere or left out. Entries with a potency or affinity are not part of this list. The source made no clear call on entries shown without one.

The test can be described thus: PubChem AID 504932. The following applies: cell-based PrP 5' UTR reporter, plate reader; at 5 µM (top of the series).

For `COC(=O)c1[nH]c2c(c1C)C(=O)CC(c1cccc(OC)c1)C2` (configuration not stated), the activity change, negative = inhibition was -35.5%.

`Cc1cccc(C(=O)O/N=C(\N)c2ccccn2)c1`: the activity change, negative = inhibition was -80.6%.
